# Measured values: the supplement of paper PMC4604168 (melanoma cell lines)
# The other results are listed elsewhere or left out. Repeats are few or missing, and single values can be far off.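 Imaging used 1,536-well plates; nuclei positive for cleaved PARP by antibody were divided by total DNA-stained nuclei to yield the apoptosis fraction. Doses for screening kept most cells viable, and cell lines differ markedly in resting and induced cleaved-PARP levels.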
# Tested on: UACC62
# Assay: cleaved PARP positive nuclei fraction relative to DMSO control; melanoma cells; higher = more apoptosis
# Details: library dose: low library concentration; 72 h
row,Compound,cleaved PARP positive nuclei fraction
1,"C[C@]12O[C@H](C[C@]1(O)CO)n1c3ccccc3c3c4c(c5c6ccccc6n2c5c31)CNC4=O [Lestaurtinib] + NC(=O)Nc1cc(-c2cccc(F)c2)sc1C(=O)N[C@H]1CCCNC1 [AZD7762] (first compound 0.004 µM, partner dose 0.02 µM)",93.1%
2,"C[C@]12O[C@H](C[C@]1(O)CO)n1c3ccccc3c3c4c(c5c6ccccc6n2c5c31)CNC4=O [Lestaurtinib] + CN(NC(=O)CC(=O)NN(C)C(=S)c1ccccc1)C(=S)c1ccccc1 [STA4783] (first compound 0.004 µM, partner dose 0.006 µM)",123%
3,"N#Cc1c(O)c2c(-c3ccc(-c4ccccc4O)cc3)csc2[nH]c1=O + Cc1cc(SCc2sc(-c3ccc(C(F)(F)F)c(F)c3)nc2C)ccc1OCC(=O)O [GW0742] (first compound 2 µM, partner dose 2 µM)",101%
4,"C[C@]12O[C@H](C[C@]1(O)CO)n1c3ccccc3c3c4c(c5c6ccccc6n2c5c31)CNC4=O [Lestaurtinib] + O=C(O)C(=O)Nc1sc2c(c1C(=O)O)CCNC2 [TCS401] (first compound 0.004 µM, partner dose 1.66667 µM)",124%
